# Measured values as given in PubChem BioAssay AID1259415 (National Center for Advancing Translational Sciences (NCATS), 2018).
# Where “and” joins values, the source holds several entries; their conditions need not be identical. Identical values can stand only once. The campaign covered roughly 410,000 compounds. About 18,000 (4.4%) were called active. Inconclusive means that the source gave no clear call. Such entries were picked first, then a sample of the others. No stated cut-off is given here; in the data, active means activity change below about -60%; inconclusive means no clear call, values can overlap the other calls; inactive means above about -39%. A structure can be active in one record and inactive in another.
# Test: qHTS Assay for inhibitors of the human cytomegalovirus (HCMV)
# Conditions: HFF cells, HCMV-luciferase reporter, 72 h; at 57.5 µM; hits give low values
# Procedure, shortened: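 Luciferase read-out from HCMV-luciferase-infected HFFs (MOI 1 PFU/cell) 72 h post infection at 37C; compounds added after 16 h cell attachment; activity normalized between buffer-only basal and Salinomycin (10uM) inhibitor controls.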
# On the % scale 0 is the no-effect control and ±100 the full control effect.
row,SMILES,"activity change, negative = inhibition"
1,Cc1ccc(N=C2NC(=O)/C(=C\c3ccsc3)S2)c(C)c1,active: -71.8%
2,Cc1cc(NC(=O)c2ccco2)ncc1NC(=O)Cc1ccccc1,inactive: 53.7%
3,Cc1cccc(N(Cc2ccccc2)C(=O)C2CCN(C(=O)c3ccccc3C)CC2)c1,inactive: 43.5%
4,COC(=O)Nc1nc2ccc(Sc3ccccc3)cc2[nH]1,inconclusive: -52.1%
5,Cc1cc(C[n+]2ncsc2N)c2ncccc2c1,inactive: -21.4%
6,O=C(Nn1cnnc1)c1ccc(Cl)cc1[N+](=O)[O-],inactive: -18.4%
7,CCC(C)NCCCCOc1ccc(Br)cc1 (stereo not drawn),inconclusive: -40.3%
8,COc1ccc(OCC(=O)Nc2ccc(S(=O)(=O)Nc3cc(C)nc(C)n3)cc2)cc1,inconclusive: -47.8%
9,CCCCC1(C)OC(=O)C(=Cc2ccc(SC)cc2)C(=O)O1 (stereo not drawn),inactive: -20%
10,COc1ccc(-c2[nH]c3ccccc3c2SCCNC(=O)c2ccc(S(=O)(=O)N(C)C)cc2)cc1,inconclusive: -40.9%
11,CCOCC(=O)Nc1ccc(-c2cn3c(C)csc3n2)cc1,inconclusive: -59%
12,CN1CCN(C(=O)C2=C[C@@H](c3ccc4c(c3)OCO4)C[C@@H](OCc3ccc(CO)cc3)O2)CC1,inconclusive: -41.2%
13,Cc1ccc(CN2CCN(C(=O)c3ccncc3)CC2)cc1,inactive: -21.6%
14,Cc1ccc2c(c1)cc(C(=O)NCc1ccc(F)cc1)n2C,inconclusive: -41.7%
15,Cc1ccc(OCCSCc2nc3ccccc3[nH]2)cc1,inactive: -21.7%
16,Cc1nnc(N2CCC(C(=O)NCc3ccc(F)cc3)CC2)c2nn(-c3ccc(Cl)cc3)c(C)c12,active: -86.2%
17,COc1ccc(CN2CCN(c3ncccn3)CC2)c(C)c1C,inactive: 8.79%
18,O=C(CN1C(=O)C2CC=CCC2C1=O)Nc1ccc(F)cc1F (stereo not drawn),inactive: 1.11%
19,O=C(NCC1CC1)c1cc2c(c(-c3cccc(-c4ccccc4F)c3)n1)[C@@H](CCO)N(C(=O)CC1CC1)C2,inconclusive: -57.1%
20,COC(=O)c1cnn(-c2ccc(Cl)cc2)c1/C=N/NC(N)=S,inconclusive: -43.9%
21,CCc1nc(N)nc(N)c1-c1ccc(Cl)c(N=[N+]=[N-])c1,active: -94.4% and active: -79%
22,CN(C)/C=N/C(=S)Nc1ccc(Cl)c(Cl)c1,inconclusive: -47.5%

row,SMILES,"activity change, negative = inhibition"
1,Cc1cc(Br)ccc1NC(=O)COc1cc(=O)n(C)c2ccccc12,inactive: -2.71%
2,NC(=S)NN=C1CCC(C2CCCCC2)CC1 (stereo not drawn),active: -79.5%
3,Clc1ccc2c(N/N=C/c3cccc(Br)c3)ccnc2c1,inconclusive: -52.3%
4,CN(CC(=O)Nc1ccccc1C(F)(F)F)C(=O)CSc1nnc(-c2ccncc2)n1C,inconclusive: 0%
5,CC(=O)Nc1ccccc1OCC(=O)c1cc(C)n(Cc2cccs2)c1C,active: -93.6%
6,COc1cc(NC(=O)CN2C(=O)COc3ccc(S(=O)(=O)N4CCCC4)cc32)cc(OC)c1,inactive: -24.8%
7,CCc1ccccc1NC(=O)NC1CCCCCCC1,inconclusive: -47.6%
8,CC(C)C(c1nnnn1C1CCCCC1)N1CCOCC1 (stereo not drawn),inconclusive: -52.9%
9,OCCNCCOc1ccc(Cl)c(Cl)c1,inconclusive: -42.5%
10,O=C(NC1CC(=O)N(c2ccc(F)cc2)C1)c1ccc(S(=O)(=O)N2CCCC2)cc1 (stereo not drawn),inactive: -23.1%
11,CCOC(=O)C1CCCN(C(=O)Cc2ccc(OC)c(OC)c2)CC1 (stereo not drawn),inactive: -12.7%
12,CN1CCN(CCCNC(=O)c2ccc(/C=C3\Oc4ccccc4N(Cc4ccc(Cl)cc4)C3=O)cc2)CC1,active: -110%
13,COc1ccc(NC(=S)N(CCCN2CCCCC2)Cc2cccs2)cc1,inconclusive: -51.1%
14,CCC(=O)Nc1ccc(NC(=O)CSc2nnnn2-c2ccc3c(c2)OCCO3)cc1,inconclusive: -42.7%
15,COc1cc(C2C3=C(COC3=O)Oc3cc4c(cc32)OCO4)cc(OC)c1OC(C)=O (stereo not drawn),active: -69.1%
16,O=C(Nc1ccc2nc(SCC(=O)N3CCCc4ccccc43)sc2c1)c1ccccc1F,inconclusive: -47.8%
17,Cc1cc(C)c2nc(N(CCCN(C)C)C(=O)c3ccc4c(c3)CCCC4)sc2c1,inconclusive: -47.8%
18,COc1ccc(C(CNC(=O)COc2ccccc2)N2CCOCC2)cc1 (stereo not drawn),inconclusive: -40.1%
19,Cc1c(C(=O)Nc2ccccc2)sc2nc(-c3cc4ccccc4oc3=O)[nH]c(=O)c12,inactive: 4.91%
20,COc1ccc(Cl)cc1NC(=O)CNCc1cccs1,inconclusive: -40.9%
21,CCn1c(-c2ccccc2)csc1=Nc1ccc(O)cc1,inconclusive: -59.3%
22,Cn1c(=O)c2cc(NC(=O)CCc3cccnc3)ccc2n1Cc1ccc(F)cc1,inconclusive: -45.7%

row,SMILES,"activity change, negative = inhibition"
1,COc1cc(/C=N/NC(=O)c2cccs2)ccc1O,inactive: -16.4%
2,CC(N)Cc1c[nH]c2ccc(OCc3cccs3)cc12 (stereo not drawn),inconclusive: -46%
3,COc1ccc(NC(=O)Cn2c([N+](=O)[O-])cnc2C)c(OC)c1,inconclusive: -48%
4,Cc1c(C(=O)OCC(C)(C)CN(C)C)oc2ccccc12,inactive: 12.5%
5,Cc1cccc(NC(=O)CN2C(=O)S/C(=C\C(=O)Nc3ccc(Cl)cc3)C2=O)c1,inconclusive: -50%
6,Cc1cc(-n2c(C)cc(C(=O)CSc3nnnn3-c3ccccc3)c2C)no1,inactive: -9.93%
7,O=C(CN1CCN(S(=O)(=O)c2ccc(F)c(Cl)c2)CC1)N1CCOCC1,inactive: -18.8%
8,O=C(Nc1ccc2nc3n(c(=O)c2c1)CCCCC3)C(=O)N1CCN(c2ccccc2)CC1,inconclusive: -51%
9,Cc1ccc(C2=NN(S(=O)(=O)c3ccccc3)C(c3ccccc3O)C2)cc1 (stereo not drawn),inconclusive: -54.2%
10,CCOc1ccc(C2C(C(N)=O)=C(C)Nc3nc(-c4ccc(OC)cc4)nn32)cc1 (stereo not drawn),inactive: 18.6%
11,CCc1nc(N)nc(N)c1-c1ccc(Cl)cc1,active: -98.6%
12,O=c1[nH]c(/C=C/c2ccccc2OC(F)F)nc2c1cnn2-c1ccccc1,inconclusive: -44%
13,Fc1ccc(-c2csc3ncnc(Cl)c23)cc1,inconclusive: -48.9%
14,O=C(NCC1CCN(Cc2ccc(Cl)cc2)CC1)C1CCCN(c2ncnc3c2nc2n3CCCCC2)C1 (stereo not drawn),active: -78.6%
15,Cc1cnc(NC(=O)c2cc(S(=O)(=O)N(C)C)ccc2N2CCCC2)s1,inconclusive: -46.3%
16,Cc1cccc(N(CC(=O)Nc2ccccc2-c2ccccc2)S(=O)(=O)c2ccccc2)c1C,active: -61.3%
17,CCOc1ccccc1NC(=O)CSc1ccc([N+](=O)[O-])cc1,inconclusive: -58.3%
18,O=C(Nc1ccccc1F)C(c1ccccc1)N1Cc2ccccc2C1=O (stereo not drawn),inconclusive: -53.4%
19,COc1ccc(NS(=O)(=O)c2cccc3cccnc23)cc1OC,inconclusive: -56.3%
20,O=S(=O)(Nc1ccc(-c2ccc(N3CCOCC3)nn2)cc1)c1ccc(Cl)c(Cl)c1,inconclusive: -44.6%
21,O=C(CSc1nccn1Cc1ccc(F)cc1)NC1CCCC1,active: -64.7%
22,CN(C)C(=O)CNc1ccn2nc(-c3cccc(Cl)c3)cc2n1,inactive: 4.54%

row,SMILES,"activity change, negative = inhibition"
1,CC1(C)NS(=O)(=O)Oc2ccccc21,inconclusive: -47.5%
2,CC(NC(=S)Nc1ccc(OC(F)F)c(Cl)c1)C(C)(C)C (stereo not drawn),inconclusive: -52.8%
3,CCN(CC)S(=O)(=O)c1cccc(C(=O)Nc2cccnc2)c1,inactive: -19%
4,COc1cccc(CNCCc2c[nH]c3ccccc23)c1OCc1ccccc1F,active: -99.3%
5,Cc1nc(NC(=O)c2ccc(Cl)cc2)sc1Cc1ccc2c(c1)OCO2,inconclusive: -45%
6,CCCN(CCC)C(=O)Cn1c(=O)n(-c2ccc(CC)cc2)c(=O)c2c3c(sc21)CCC3,inactive: -13.9%
7,O=C(CCCCCNC(=O)N1CCn2c1nc1ccccc12)NCCc1ccccc1,inconclusive: -52.1%
8,CCOC(=O)N1CC(C)N(CC(O)CN2CCOCC2)CC1C (stereo not drawn),active: -88.2%
9,CC(Oc1ccc(Br)cc1)C(=O)Nc1ccc(S(=O)(=O)N(C)C2CCN(C)CC2)cc1 (stereo not drawn),inconclusive: -43.2%
10,Cc1cc(C(=O)N2CCCC(C(=O)c3cccc(C(F)(F)F)c3)C2)nc(C)n1 (stereo not drawn),inactive: -21.1%
11,NC(=O)CN1CCN(CCN2C(=O)c3cccc4cccc(c34)C2=O)CC1,inconclusive: -58.2%
12,Cc1c(C(=O)N2CCCCC2)c(S(=O)(=O)NCc2ccccc2Cl)c(C)n1C,inactive: -22.5%
13,Cc1ccc(-c2cc(C(=O)O)c3cc(Br)ccc3n2)o1,inactive: 17.9%
14,Cc1cc(Cl)ccc1NC(=O)CS(=O)(=O)c1cccc2nsnc12,inactive: -18.5%
15,CN(Cc1ccccc1)C(=O)c1[nH]cnc1C(=O)NCC(=O)OC(C)(C)C,inconclusive: -47.7%
16,CC1(C)CC(=O)C2=C(C1)NC1=C(C(=O)c3ccccc31)C2c1cccnc1 (stereo not drawn),inconclusive: -51%
17,O=C(CN1C(=O)S/C(=C\c2ccc(-c3cc(C(=O)O)ccc3Cl)o2)C1=O)Nc1ccc2c(c1)OCO2,inconclusive: -41.6%
18,Cc1ccc(NC(=O)C2CCN(S(=O)(=O)c3cnc[nH]3)CC2)cc1C,inconclusive: -48.9%
19,CCCCn1c(N)c(N(CC(C)C)C(=O)c2cc(Br)c(Br)s2)c(=O)[nH]c1=O,inconclusive: -45.8%
20,FC(F)(F)Sc1ccc(NC(=S)NCc2ccccc2)cc1,inconclusive: -45.9%
21,C1CCC(C(CC2CCCCN2)C2CCCCC2)CC1 (stereo not drawn),active: -99%
22,COc1ccc(CCNc2oc(/C=C/c3ccc(OC)c(OC)c3)nc2C#N)cc1,inactive: 5.13%
